Measurements: PubChem BioAssay AID328 (DTP/NCI, 2004)
The list does not hold the whole screen: it is rich in T/C values a quarter to a half above the control, in often repeated tests (any T/C) and in doses without a T/C. Other doses and runs of a compound stand elsewhere. T/C gives the treated animals as a percentage of the vehicle group. Some entries give survivors of the animals treated and no T/C: the source holds a T/C of zero for them, seemingly a mark for toxic or unscored doses. Some survivor counts are full or nearly so, which does not show that the dose was tolerated: survival well below the control is almost never listed, so the zero probably covers shortened survival too. Survivors were counted at the toxicity check, usually on the fifth day, unless a day is given; later deaths do not show. Schedule codes are those of the source, read here as Q, the interval in days (D) or hours (H), X, the number of doses. Where survival is the endpoint, this PubChem deposit counts one and a half times the control or more as active, and values a quarter to a half above the control carry no call in these data; other NCI protocols may use other cut-offs. Some T/C values are followed by the survivors on the day toxicity was checked, most often the fifth; without a count, all were alive then. Some doses were run more than once; the values are given in rising order.

Test system: BDF1 mice, P388 leukemia ip, median survival T/C
Experiment: NCI In Vivo Anticancer Drug Screen. Data for tumor model P388 Leukemia (intraperitoneal) in B6D2F1 (BDF1) mice
Conditions: T/C endpoint: median survival time, higher T/C = longer survival
In short: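 Vehicle-dosed animals serve as the reference; survival of compound-dosed, tumour-implanted mice is divided by it.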

[1] = dose: 100.0 mg/kg/injection, schedule: Q01DX009 (ip), vehicle: saline with Tween-80
[2] = dose: 200.0 mg/kg/injection, schedule: Q01DX009 (ip), vehicle: saline with Tween-80
[3] = dose: 400.0 mg/kg/injection, schedule: Q04DX003 (ip), vehicle: saline with Tween-80
[4] = dose: 400.0 mg/kg/injection, schedule: Q01DX009 (ip), vehicle: saline with Tween-80
[5] = dose: 50.0 mg/kg/injection, schedule: Q01DX009 (ip), vehicle: Klucel (hydroxypropylcellulose) (HPC)
[6] = dose: 100.0 mg/kg/injection, schedule: Q01DX009 (ip), vehicle: Klucel (hydroxypropylcellulose) (HPC)
[7] = dose: 200.0 mg/kg/injection, schedule: Q01DX009 (ip), vehicle: Klucel (hydroxypropylcellulose) (HPC)
[8] = dose: 50.0 mg/kg/injection, schedule: Q01DX009 (ip), vehicle: saline with Tween-80
[9] = dose: 200.0 mg/kg/injection, schedule: Q04DX003 (ip), vehicle: Klucel (hydroxypropylcellulose) (HPC)
[10] = dose: 400.0 mg/kg/injection, schedule: Q04DX003 (ip), vehicle: Klucel (hydroxypropylcellulose) (HPC)

Clc1ccc2nc(CBr)cnc2c1
survivor count [1]: 6 of 6
survivor count (dose: 100.0 mg/kg/injection, schedule: Q04DX003 (ip), vehicle: saline with Tween-80): 6 of 6
survivor count (dose: 120.0 mg/kg/injection, schedule: Q04DX003 (ip), vehicle: Klucel (hydroxypropylcellulose) (HPC)): 6 of 6
survivor count (dose: 180.0 mg/kg/injection, schedule: Q04DX003 (ip), vehicle: Klucel (hydroxypropylcellulose) (HPC)): 2 of 6
survivor count [2]: 0 of 6
survivor count (dose: 270.0 mg/kg/injection, schedule: Q04DX003 (ip), vehicle: Klucel (hydroxypropylcellulose) (HPC)): 4 of 6
survivor count [3]: 0 of 6

COc1ccc2c(c1)N=C1CCCC3CCCCC123 (centres undefined)
survivor count [3]: 2 of 6

Clc1ccc(-c2nc3ncccn3n2)cc1
survivor count [1]: 6 of 6

CCCn1cnc2c(=S)nc[nH]c21
survivor count [2]: 5 of 6
survivor count [4]: 5 of 6

O=C(CCNOCc1ccccc1)OCc1ccccc1
T/C (dose: 100.0 mg/kg/injection, schedule: Q01DX009 (ip), vehicle: other): 126 % of control

CCOc1ccc(NC(=O)OCCN2CCN(CCc3ccccc3)C(C)C2)cc1 (centres undefined)
survivor count [2]: 0 of 6

O=c1[nH]cc(F)c(=O)n1C1OC(CO)C(O)C1O (centres undefined)
survivor count (dose: 6.0 mg/kg/injection, schedule: Q01DX009 (ip), vehicle: saline): 6 of 6

c1ccc(C(Nc2nccs2)Nc2nccs2)cc1
survivor count [1]: 3 of 6
survivor count [2]: 0 of 6

CC(/C=N/NC(N)=S)Cc1ccc(C(C)C)cc1 (centres undefined)
survivor count (dose: 28.0 mg/kg/injection, schedule: Q01DX009 (ip), vehicle: saline with Tween-80): 6 of 6
survivor count (dose: 60.0 mg/kg/injection, schedule: Q01DX001 (ip), vehicle: saline with Tween-80): 0 of 6
survivor count (dose: 90.0 mg/kg/injection, schedule: Q01DX001 (ip), vehicle: saline with Tween-80): 0 of 6
survivor count (dose: 135.0 mg/kg/injection, schedule: Q01DX001 (ip), vehicle: saline with Tween-80): 0 of 6

CC1CN1S(=O)(=O)N1CC1C (centres undefined)
T/C (dose: 11.0 mg/kg/injection, schedule: Q04DX003 (ip), vehicle: saline with Tween-80): 136 % of control
T/C (dose: 12.5 mg/kg/injection, schedule: Q04DX003 (ip), vehicle: saline with Tween-80): 145 % of control
survivor count (dose: 50.0 mg/kg/injection, schedule: Q04DX003 (ip), vehicle: saline with Tween-80): 6 of 6

CC1=Nc2ccccc2/C1=C\c1c(C)[nH]c2ccccc12
T/C [5]: 91, 104, 113, 123 [5 of 6 alive], 166 % of control [5 of 6 alive]
T/C [6]: 140 and 145 % of control
T/C [7]: 129 % of control

Sc1ccc(Nc2c3ccccc3nc3ccccc23)cc1
T/C [2]: 125 [5 of 6 alive] and 134 % of control
survivor count [4]: 5 of 6

O=C(Nc1ccccc1C(=O)O)c1cc([N+](=O)[O-])cc([N+](=O)[O-])c1
T/C [1]: 130 % of control
survivor count [2]: 4 of 6

O=C(CSCSCC(=O)Nc1ccc(C2=NCCN2)cc1)Nc1ccc(C2=NCCN2)cc1
T/C (dose: 25.0 mg/kg/injection, schedule: Q04DX003 (ip), vehicle: saline): 125 % of control
T/C (dose: 35.0 mg/kg/injection, schedule: Q01DX009 (ip), vehicle: Klucel (hydroxypropylcellulose) (HPC)): 137 % of control
T/C [5]: 129 % of control
T/C (dose: 75.0 mg/kg/injection, schedule: Q01DX009 (ip), vehicle: Klucel (hydroxypropylcellulose) (HPC)): 137 % of control
T/C (dose: 90.0 mg/kg/injection, schedule: Q04DX003 (ip), vehicle: saline): 138 % of control
survivor count (dose: 200.0 mg/kg/injection, schedule: Q04DX003 (ip), vehicle: saline): 4 of 6
survivor count (dose: 300.0 mg/kg/injection, schedule: Q04DX003 (ip), vehicle: saline): 3 of 6

COCn1cc(C(N)=O)c(=O)c2c(N)nc(SC)nc21
survivor count (dose: 200.0 mg/kg/injection, schedule: Q04DX002 (ip), vehicle: saline with Tween-80): 6 of 6

Cc1c(N)nc(C(CC(N)=O)NCC(N)C(N)=O)nc1C(=O)NC(C(=O)NC(C)C(O)C(C)C(=O)NC(C(=O)NCCc1nc(-c2nc(C(=O)NCCC[S+](C)C)cs2)cs1)C(C)O)C(OC1OC(CO)C(O)C(O)C1OC1OC(CO)C(O)C(OC(N)=O)C1O)c1cnc[nH]1 (centres undefined)
T/C (dose: 2.0 mg/kg/injection, schedule: Q01DX009 (ip), vehicle: saline): 127 and 136 % of control
T/C (dose: 4.0 mg/kg/injection, schedule: Q01DX009 (ip), vehicle: saline): 130, 136, 145 % of control
T/C (dose: 8.0 mg/kg/injection, schedule: Q01DX009 (ip), vehicle: saline): 134 and 136 % of control

CC1(C)CCSC(/C=C/c2ccccc2)=N1
T/C [7]: 126 % of control
survivor count (dose: 400.0 mg/kg/injection, schedule: Q01DX009 (ip), vehicle: Klucel (hydroxypropylcellulose) (HPC)): 0 of 6

CC(=O)NCCSC(=O)C(=O)SCCNC(C)=O
survivor count (dose: 300.0 mg/kg/injection, schedule: Q01DX009 (ip), vehicle: Klucel (hydroxypropylcellulose) (HPC)): 2 of 6

COC(/C=C\C(OC)OC)OC
T/C (dose: 6.25 mg/kg/injection, schedule: Q01DX009 (ip), vehicle: saline): 125 % of control
survivor count (dose: 35.0 mg/kg/injection, schedule: Q01DX009 (ip), vehicle: saline): 1 of 6
survivor count (dose: 55.0 mg/kg/injection, schedule: Q01DX009 (ip), vehicle: saline): 0 of 6
survivor count (dose: 75.0 mg/kg/injection, schedule: Q04DX003 (ip), vehicle: saline): 4 of 6
survivor count (dose: 80.0 mg/kg/injection, schedule: Q01DX009 (ip), vehicle: saline): 0 of 6

CSC(=S)N/N=C(\C)C1CCCC[N-]1.[Cl][Zn][Cl] (centres undefined)
survivor count [8]: 6 of 6
survivor count [1]: 5 of 6
survivor count [2]: 0 of 6

C=CCNCCN1CCN(CCCN2c3ccccc3Sc3ccc(C(F)(F)F)cc32)CC1
T/C (dose: 50.0 mg/kg/injection, schedule: Q04DX003 (ip), vehicle: saline): 144 % of control

N#Cc1cnc2n(c1=N)CCCCC2
survivor count [9]: 5 of 6
survivor count [10]: 0 of 6

C[CH2][Pb]([CH2]C)([CH2]C)[O]C(=O)c1ccc(N)cc1
T/C (dose: 6.25 mg/kg/injection, schedule: Q01DX009 (ip), vehicle: Klucel (hydroxypropylcellulose) (HPC)): 129 and 141 % of control
T/C (dose: 12.0 mg/kg/injection, schedule: Q01DX009 (ip), vehicle: Klucel (hydroxypropylcellulose) (HPC)): 135 % of control
survivor count (dose: 12.5 mg/kg/injection, schedule: Q01DX009 (ip), vehicle: Klucel (hydroxypropylcellulose) (HPC)): 5 of 6
survivor count (dose: 24.0 mg/kg/injection, schedule: Q01DX009 (ip), vehicle: Klucel (hydroxypropylcellulose) (HPC)): 5 of 6
survivor count (dose: 25.0 mg/kg/injection, schedule: Q01DX009 (ip), vehicle: Klucel (hydroxypropylcellulose) (HPC)): 2 of 6

Nc1ccc(OCc2ccccc2)cc1
survivor count [8]: 6 of 6
survivor count [1]: 5 of 6

O=C(Cn1cc(F)c(=O)[nH]c1=O)N1CCC2(CC1)SSC1(CCN(C(=O)Cn3cc(F)c(=O)[nH]c3=O)CC1)S2
survivor count (dose: 400.0 mg/kg/injection, schedule: Q01DX009 (ip), vehicle: saline): 3 of 6

CN(C)c1ccc2c(N(C)C)cc(N(C)C)nc2c1
T/C [6]: 127 % of control [4 of 6 alive]

OC(Cc1cnc2ccccc2c1)(c1ccccc1)c1ccccc1
T/C (dose: 100.0 mg/kg/injection, schedule: Q04DX002 (ip), vehicle: saline with Tween-80): 140 % of control

CSc1nc(N)cc(NC(=O)CCl)n1
survivor count [7]: 2 of 6
survivor count [2]: 6 of 6
survivor count [9]: 5 of 6
survivor count [10]: 2 of 6

CC1OC(OCc2cc(O)c3c(c2)C(C2OC(CO)C(O)C(O)C2O)c2cccc(O)c2C3=O)C(O)C(O)C1O (centres undefined)
survivor count (dose: 200.0 mg/kg/injection, schedule: Q04DX003 (ip), vehicle: saline with Tween-80): 6 of 6
survivor count [3]: 5 of 6

COc1ccc(C(O)CNC(=O)c2ccccc2)cc1 (centres undefined)
T/C [9]: 125 % of control [5 of 6 alive]
survivor count [10]: 6 of 6

O=C1c2ccccc2C(=O)c2cc3c(cc21)CCCC3
survivor count (dose: 200.0 mg/kg/injection, schedule: Q01DX009 (ip), vehicle: water): 8 of 8
